# Results are given in words; binding and its absence hold for the method and conditions named. Some entries that bind do so weakly or less than the wild type. Where a sequence is shown, tags or fusion partners need not be part of it.
# T1: GatB subunit of S. cerevisiae GatFAB with both C-terminal domains (GatB 16–541), His-tagged (S. cerevisiae) (UniProt P33893)
# T1 sequence: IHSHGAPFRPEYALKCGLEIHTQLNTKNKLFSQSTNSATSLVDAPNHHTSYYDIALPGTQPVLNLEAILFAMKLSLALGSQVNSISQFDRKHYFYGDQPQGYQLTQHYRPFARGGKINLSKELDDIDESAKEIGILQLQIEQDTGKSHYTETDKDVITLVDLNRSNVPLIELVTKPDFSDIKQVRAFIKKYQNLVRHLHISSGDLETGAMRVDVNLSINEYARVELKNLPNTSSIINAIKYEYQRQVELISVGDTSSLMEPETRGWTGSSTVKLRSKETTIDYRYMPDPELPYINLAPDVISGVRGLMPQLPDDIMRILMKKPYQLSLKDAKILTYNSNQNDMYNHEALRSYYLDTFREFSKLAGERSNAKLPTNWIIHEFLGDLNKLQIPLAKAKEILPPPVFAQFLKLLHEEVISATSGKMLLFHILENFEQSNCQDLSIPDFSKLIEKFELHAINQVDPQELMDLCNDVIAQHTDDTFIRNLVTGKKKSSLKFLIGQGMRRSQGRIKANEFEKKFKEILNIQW
# T2: GatB subunit of S. cerevisiae GatFAB lacking the helical and YqeY domains (GatBΔHY, residues 16–329) (S. cerevisiae) (UniProt P33893)
# T2 sequence: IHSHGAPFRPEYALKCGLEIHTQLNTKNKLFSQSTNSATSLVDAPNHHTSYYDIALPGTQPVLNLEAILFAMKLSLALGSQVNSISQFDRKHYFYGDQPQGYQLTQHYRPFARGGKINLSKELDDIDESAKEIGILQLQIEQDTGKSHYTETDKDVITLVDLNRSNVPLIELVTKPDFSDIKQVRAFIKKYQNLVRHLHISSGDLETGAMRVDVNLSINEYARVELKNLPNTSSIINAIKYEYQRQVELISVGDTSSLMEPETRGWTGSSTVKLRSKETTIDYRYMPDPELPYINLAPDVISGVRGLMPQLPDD
# T3: GatA subunit of Saccharomyces cerevisiae mitochondrial GatFAB (S. cerevisiae) (UniProt Q03557)
# T3 sequence: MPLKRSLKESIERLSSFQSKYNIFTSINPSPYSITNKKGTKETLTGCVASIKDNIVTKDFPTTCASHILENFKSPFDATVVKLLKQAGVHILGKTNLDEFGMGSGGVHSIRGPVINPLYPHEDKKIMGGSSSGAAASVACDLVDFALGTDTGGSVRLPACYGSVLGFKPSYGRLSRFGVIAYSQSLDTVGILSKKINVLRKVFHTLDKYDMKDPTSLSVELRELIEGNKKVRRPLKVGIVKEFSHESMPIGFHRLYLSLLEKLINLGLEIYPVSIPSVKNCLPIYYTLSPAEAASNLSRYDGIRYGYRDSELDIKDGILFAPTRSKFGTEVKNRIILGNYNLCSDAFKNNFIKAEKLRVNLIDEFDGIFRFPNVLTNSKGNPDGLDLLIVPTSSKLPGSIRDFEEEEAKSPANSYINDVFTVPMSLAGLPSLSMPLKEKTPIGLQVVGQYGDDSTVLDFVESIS
# Experiments:
# [1] = molecular target: T1, GatB subunit of S. cerevisiae GatFAB with both C-terminal domains (GatB 16–541), His-tagged (S. cerevisiae); test: co-purification by the His-tag; GatF mutant, GatA and His-tagged GatB co-expressed in E. coli from the gatFAB operon; purified with MagneHis; Coomassie blue-stained protein gel
# [2] = molecular target: T2, GatB subunit of S. cerevisiae GatFAB lacking the helical and YqeY domains (GatBΔHY, residues 16–329) (S. cerevisiae); test: crystal structure; GatFABΔHY heterotrimer, free and Gln-bound (10 mM glutamine) forms; sitting drop vapor diffusion at 20°C; 50 mM sodium malonate, 200 mM Mg(NO3)2, 10–13% PEG3350; both purified
# [3] = molecular target: T3, GatA subunit of Saccharomyces cerevisiae mitochondrial GatFAB (S. cerevisiae); test: as above
Binder,binding [1],binding [2],binding [3]
"GatA subunit of Saccharomyces cerevisiae mitochondrial GatFAB (enzyme, UniProt Q03557 1-464) MPLKRSLKESIERLSSFQSKYNIFTSINPSPYSITNKKGTKETLTGCVASIKDNIVTKDFPTTCASHILENFKSPFDATVVKLLKQAGVHILGKTNLDEFGMGSGGVHSIRGPVINPLYPHEDKKIMGGSSSGAAASVACDLVDFALGTDTGGSVRLPACYGSVLGFKPSYGRLSRFGVIAYSQSLDTVGILSKKINVLRKVFHTLDKYDMKDPTSLSVELRELIEGNKKVRRPLKVGIVKEFSHESMPIGFHRLYLSLLEKLINLGLEIYPVSIPSVKNCLPIYYTLSPAEAASNLSRYDGIRYGYRDSELDIKDGILFAPTRSKFGTEVKNRIILGNYNLCSDAFKNNFIKAEKLRVNLIDEFDGIFRFPNVLTNSKGNPDGLDLLIVPTSSKLPGSIRDFEEEEAKSPANSYINDVFTVPMSLAGLPSLSMPLKEKTPIGLQVVGQYGDDSTVLDFVESIS",binds,binds,
"GatF subunit of S. cerevisiae GatFAB without the mitochondrial targeting sequence (GatF 24–183) (domain or fragment, UniProt P53260 24-183) FVSTGGAKIGKKFENMNQIRDYLSRPVWSVHEYLGINTKEEKLEPPSAEAVKKLLRLSGLPLEGADIKEIQMRLAKQLSFINKLHNIPVEGEKHTKEYDARLVQRNTKQLNYTKLLEGISHQKQDAELGEVSGSWKATGLAAESKNAYFVVKEGLLKNRK",,binds,binds

# Further lines, results first:
binding [1],binding [2],binding [3],Binder
binds,,,"GatF N-terminal deletion mutant GatF 47–183 (domain or fragment, UniProt P53260 47-183) SRPVWSVHEYLGINTKEEKLEPPSAEAVKKLLRLSGLPLEGADIKEIQMRLAKQLSFINKLHNIPVEGEKHTKEYDARLVQRNTKQLNYTKLLEGISHQKQDAELGEVSGSWKATGLAAESKNAYFVVKEGLLKNRK"
binds,,,"GatF N-terminal deletion mutant GatF 37–183 (domain or fragment, UniProt P53260 37-183) ENMNQIRDYLSRPVWSVHEYLGINTKEEKLEPPSAEAVKKLLRLSGLPLEGADIKEIQMRLAKQLSFINKLHNIPVEGEKHTKEYDARLVQRNTKQLNYTKLLEGISHQKQDAELGEVSGSWKATGLAAESKNAYFVVKEGLLKNRK"

# — paper PMC4027206, “Crystal structure of Saccharomyces cerevisiae mitochondrial GatFAB reveals a novel subunit assembly in tRNA-dependent amidotransferases” (Nucleic Acids Research, 2014)
